For the experiment, the target named is Beta-1 adrenergic receptor (Cavia porcellus, UniProt B0FL73). Put plainly: Antagonist activity at beta1 adrenoceptor in guinea pig atrium assessed as inhibition of isoproterenol-induced response after 20 mins. Also noted: species or system Cardiac atrium. The note with it: read-out: pA2 (converted).

Sequences of proteins named here, by UniProt entry; tags and fusion partners are left off.
UniProt B0FL73, whole entry: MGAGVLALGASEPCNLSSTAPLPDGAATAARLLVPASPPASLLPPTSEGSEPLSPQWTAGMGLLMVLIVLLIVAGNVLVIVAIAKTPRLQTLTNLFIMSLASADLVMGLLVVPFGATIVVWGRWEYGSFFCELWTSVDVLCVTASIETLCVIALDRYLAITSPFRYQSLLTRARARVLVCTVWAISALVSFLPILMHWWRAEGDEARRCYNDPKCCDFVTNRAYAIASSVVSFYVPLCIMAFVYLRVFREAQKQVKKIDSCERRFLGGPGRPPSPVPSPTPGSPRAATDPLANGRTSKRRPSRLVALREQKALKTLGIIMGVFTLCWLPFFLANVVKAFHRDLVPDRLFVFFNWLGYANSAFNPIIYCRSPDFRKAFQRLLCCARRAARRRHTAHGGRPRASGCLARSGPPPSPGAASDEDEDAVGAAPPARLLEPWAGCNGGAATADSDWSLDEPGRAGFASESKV

With `CC(C)NCC(O)COc1ccc(CC(N)=O)cc1` (stereo unspecified) [ATENOLOL], the Kb was 43.7 nM.
